Laboratory results: publication PMC9468182
These are yes or no findings as the source states them, for the method shown. In cells and extracts the contact can be indirect. Some entries that bind do so weakly or less than the wild type.

The chains behind the UniProt entries cited, without tags or fusion partners.
UniProt Q8VDZ4: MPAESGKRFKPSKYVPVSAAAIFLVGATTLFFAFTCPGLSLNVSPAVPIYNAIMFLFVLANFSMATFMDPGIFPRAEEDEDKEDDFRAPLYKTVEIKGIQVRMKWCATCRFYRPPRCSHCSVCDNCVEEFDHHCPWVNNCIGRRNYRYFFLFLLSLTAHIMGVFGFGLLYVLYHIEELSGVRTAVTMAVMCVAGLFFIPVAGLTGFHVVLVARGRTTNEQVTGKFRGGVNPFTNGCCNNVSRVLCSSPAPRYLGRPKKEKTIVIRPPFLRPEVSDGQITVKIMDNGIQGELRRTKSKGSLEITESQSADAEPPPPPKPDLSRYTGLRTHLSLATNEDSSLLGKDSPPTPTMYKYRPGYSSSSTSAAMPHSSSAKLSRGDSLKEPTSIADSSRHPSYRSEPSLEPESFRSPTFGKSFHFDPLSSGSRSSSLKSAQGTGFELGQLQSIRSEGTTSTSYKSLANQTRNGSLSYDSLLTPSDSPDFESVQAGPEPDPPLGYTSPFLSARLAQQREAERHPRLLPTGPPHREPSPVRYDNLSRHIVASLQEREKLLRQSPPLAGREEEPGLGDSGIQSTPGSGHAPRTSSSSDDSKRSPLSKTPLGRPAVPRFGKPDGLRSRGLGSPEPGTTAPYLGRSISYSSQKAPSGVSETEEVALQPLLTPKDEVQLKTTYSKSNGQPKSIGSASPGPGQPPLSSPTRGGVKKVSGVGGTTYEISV

How the values were obtained:
[1] = molecular target: ZDHHC5, endogenous in mouse hippocampus (mouse (endogenous in hippocampus)) (UniProt Q8VDZ4); experiment: co-IP; lysate of mouse hippocampus, precipitation with ZDHHC5 antibody, Syn1 detected
[2] = molecular target: Synapsin1 wild type, expressed in HEK-293T cells for co-immunoprecipitation with ZDHHC5 (mouse) (UniProt O88935); experiment: co-IP; Syn1-WT or Syn1-3CA coexpressed with or without ZDHHC5 in HEK-293T cells; which protein was precipitated is not told
[3] = molecular target: Synapsin1 triple-cysteine mutant Syn1-3CA, expressed in HEK-293T cells for co-immunoprecipitation with ZDHHC5 (mouse) (UniProt O88935); experiment: as above

| binding [1] | binding [2] | binding [3] | Substance |
| --- | --- | --- | --- |
| binds |  |  | Synapsin1, endogenous in mouse hippocampus (from UniProt O88935 1-706) |
|  | binds | binds | ZDHHC5, expressed in HEK-293T cells (from UniProt Q8VDZ4 1-715) (enzyme) |
